The target in test [1] is c-fos protein. In words: yeast two-hybrid.
In test [2] the target is ApC/EBP (35S-methionine-labeled, in vitro translated) (Aplysia). In words: GST pull-down of 35S-labeled in vitro translated ApC/EBP.

Here are results for 3 molecules from patent publication US7015190B1, “Method for enhancing long-term memory in a subject and uses thereof” (The Trustees of Columbia University in the City of New York, priority 1996, dated 2006).

Results are given in words; binding and its absence hold for the method and conditions named. Binding can be weak; no strength is given. Sequences can lack the tags named with a protein. For part of these data: Binding seen in cells or lysates may run through a third protein.

B1: ApCREB-2 C-terminal 118 amino acid peptide (amino acids 260-378, bZIP motif) as two-hybrid fusion (protein, not shown: large carriers)
chain: IDASKRFSPYSRSSKSKQSVKTSDAKAPRKTRTPAQPVPEHVIMEHLDKKDRKKLQNKNAAIRYRMKKKGEAQGIKGEEQELEELNTKLKTKVDDLQREIKYMKNLMEDVCKAKGIQLK
Consider B1, for which the binding entry in test [1] is on record as “binds”.

B2: full-length ApCREB-2 as two-hybrid fusion (pGAD10 clone; pAS1 / pACT2 subclones) (protein, not shown: large carriers)
chain: MELDLWSEDFQLAREWGLEMPVVQTDGQFGDLKSTSRHGGDESLSLQPQGATLKLEPFEEDVLGAEWMESSDLGSFLDALGDNHERLHPFESNLLEFTSLITPDDSTVSKDILSSTLQFPTQPVNIPLYASHGAEDFSAETEFENHLSPPDSPEQVAPVINLEPVELTASHMTVISPDGLLGGMELASESLTFTELDFVNFNDSAVGSIGGAEELLGSPLSVDDVESTISFSGPSSPETSQSSIIESSPELYKVISTSSIDASKRFSPYSRSSKSKQSVKTSDAKAPRKTRTPAQPVPEHVIMEHLDKKDRKKLQNKNAAIRYRMKKKGEAQGIKGEEQELEELNTKLKTKVDDLQREIKYMKNLMEDVCKAKGIQLKM
Regarding B2, the binding entry in test [1] is given as “binds”.

B3: GST-ApCREB-2 deletion mutant lacking the N-terminal 260 amino acids (protein, not shown: a dimerising Fc or GST; large carriers; small tags and cut ends)
chain: DASKRFSPYSRSSKSKQSVKTSDAKAPRKTRTPAQPVPEHVIMEHLDKKDRKKLQNKNAAIRYRMKKKGEAQGIKGEEQELEELNTKLKTKVDDLQREIKYMKNLMEDVCKAKGIQLK
As for B3, the binding entry in test [2] was “binds”.
